{"source": "PubChem BioAssay AID743454 | Peter MacCallum Cancer Centre | 2014", "aim": "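Knock-downs lowering viability or raising caspase 3/7 activity in vorinostat-treated resistant cells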 (primary screen)", "cell system": "human HCT116-VR colon cancer cells, selected for vorinostat resistance", "reagent": "siRNA pool against human genes, 40 nM siRNA pool", "timing": "vorinostat for 24 h, read-out about 72 h after transfection", "challenge": "vorinostat at 2.5 µM final", "measured": "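Cell viability by CellTiter-Fluor and caspase 3/7 activity by luminescence, each scaled to mock wells per plate, duplicates averaged, then robust z-scored over all plates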", "scale": "viability robust z-score: higher = more viable cells than screen typical; caspase robust z-score: higher = more caspase 3/7 activity than screen typical", "hit rule": "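a knock-down is a hit when classed RV1 or RV2 for lowered viability, or CA1 or CA2 for caspase activation; those lethal without drug were dropped; hits were retested singly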", "note": "Shown is an unselected part of about 18,000 reagents tested. Of all reagents, 450 (2.5%) were called active. 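Single biological run; no consistent viability z cut-off exists, so the class columns, not z-scores, define the calls.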 A number with no mark means an inactive call. Reagent sequences are not shown."}
{"gene":"TRMT5","viability hit class":"no change","caspase hit class":"no change","viability robust z-score":0.6,"caspase robust z-score":-0.43}
{"gene":"RBBP9","viability hit class":"RV2 (reduced viability) (active)","caspase hit class":"no change","viability robust z-score":-4.2,"caspase robust z-score":3.32}
{"gene":"FAM110D","viability hit class":"no change","caspase hit class":"no change","viability robust z-score":0.02,"caspase robust z-score":-0.24}
{"gene":"PRSS3","viability hit class":"no change","caspase hit class":"no change","viability robust z-score":-0.1,"caspase robust z-score":0.9}
{"gene":"SELENOP","viability hit class":"no change","caspase hit class":"no change","viability robust z-score":1.08,"caspase robust z-score":-0.76}
{"gene":"GALM","viability hit class":"no change","caspase hit class":"no change","viability robust z-score":1.98,"caspase robust z-score":0.12}
{"gene":"TRIM16","viability hit class":"no change","caspase hit class":"no change","viability robust z-score":1.32,"caspase robust z-score":-1.4}
{"gene":"FBH1","viability hit class":"no change","caspase hit class":"no change","viability robust z-score":-0.92,"caspase robust z-score":4.5}
{"gene":"MSLNL","viability hit class":"no change","caspase hit class":"no change","viability robust z-score":0.62,"caspase robust z-score":1.02}
{"gene":"PTPN11","viability hit class":"no change","caspase hit class":"no change","viability robust z-score":1.06,"caspase robust z-score":0.94}
{"gene":"RELCH","viability hit class":"no change","caspase hit class":"no change","viability robust z-score":1,"caspase robust z-score":1.55}
{"gene":"RTP3","viability hit class":"no change","caspase hit class":"no change","viability robust z-score":-0.08,"caspase robust z-score":0.57}
{"gene":"PTRH1","viability hit class":"no change","caspase hit class":"no change","viability robust z-score":-0.54,"caspase robust z-score":-0.12}
{"gene":"CSTA","viability hit class":"no change","caspase hit class":"no change","viability robust z-score":-1.97,"caspase robust z-score":0.52}
{"gene":"EVI2A","viability hit class":"no change","caspase hit class":"no change","viability robust z-score":1.32,"caspase robust z-score":-0.34}
{"gene":"PREX2","viability hit class":"no change","caspase hit class":"no change","viability robust z-score":-0.18,"caspase robust z-score":-1.06}
{"gene":"IGF2BP1","viability hit class":"no change","caspase hit class":"no change","viability robust z-score":0.11,"caspase robust z-score":0.28}
{"gene":"PDZRN3","viability hit class":"no change","caspase hit class":"no change","viability robust z-score":0.45,"caspase robust z-score":-0.56}
{"gene":"TDO2","viability hit class":"no change","caspase hit class":"no change","viability robust z-score":0.6,"caspase robust z-score":0.14}
{"gene":"SLC28A3","viability hit class":"no change","caspase hit class":"no change","viability robust z-score":-1.46,"caspase robust z-score":-0.96}
{"gene":"SLC35F1","viability hit class":"no change","caspase hit class":"no change","viability robust z-score":0.78,"caspase robust z-score":0.78}
